# The list shows a part of the results. Hit calls seldom repeat between salt and free forms of one compound.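 Kinases were expressed as nanoluciferase fusions in K562 cells and luminescence was read every 4 h between 2 and 18 h as percent of control, DMSO set to 100% and a positive control to 0%. A time point counts as decreased when the signal drops significantly (2 sigma). The hit call is the authors' own, does not follow from the count of time points alone, and its rule is not shown.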
# Sequences of proteins named here, by UniProt entry; tags and fusion partners are left off. A change or cut given only in a name is not applied to a line headed by its entry.
# UniProt P07949, whole entry M918T, looked up: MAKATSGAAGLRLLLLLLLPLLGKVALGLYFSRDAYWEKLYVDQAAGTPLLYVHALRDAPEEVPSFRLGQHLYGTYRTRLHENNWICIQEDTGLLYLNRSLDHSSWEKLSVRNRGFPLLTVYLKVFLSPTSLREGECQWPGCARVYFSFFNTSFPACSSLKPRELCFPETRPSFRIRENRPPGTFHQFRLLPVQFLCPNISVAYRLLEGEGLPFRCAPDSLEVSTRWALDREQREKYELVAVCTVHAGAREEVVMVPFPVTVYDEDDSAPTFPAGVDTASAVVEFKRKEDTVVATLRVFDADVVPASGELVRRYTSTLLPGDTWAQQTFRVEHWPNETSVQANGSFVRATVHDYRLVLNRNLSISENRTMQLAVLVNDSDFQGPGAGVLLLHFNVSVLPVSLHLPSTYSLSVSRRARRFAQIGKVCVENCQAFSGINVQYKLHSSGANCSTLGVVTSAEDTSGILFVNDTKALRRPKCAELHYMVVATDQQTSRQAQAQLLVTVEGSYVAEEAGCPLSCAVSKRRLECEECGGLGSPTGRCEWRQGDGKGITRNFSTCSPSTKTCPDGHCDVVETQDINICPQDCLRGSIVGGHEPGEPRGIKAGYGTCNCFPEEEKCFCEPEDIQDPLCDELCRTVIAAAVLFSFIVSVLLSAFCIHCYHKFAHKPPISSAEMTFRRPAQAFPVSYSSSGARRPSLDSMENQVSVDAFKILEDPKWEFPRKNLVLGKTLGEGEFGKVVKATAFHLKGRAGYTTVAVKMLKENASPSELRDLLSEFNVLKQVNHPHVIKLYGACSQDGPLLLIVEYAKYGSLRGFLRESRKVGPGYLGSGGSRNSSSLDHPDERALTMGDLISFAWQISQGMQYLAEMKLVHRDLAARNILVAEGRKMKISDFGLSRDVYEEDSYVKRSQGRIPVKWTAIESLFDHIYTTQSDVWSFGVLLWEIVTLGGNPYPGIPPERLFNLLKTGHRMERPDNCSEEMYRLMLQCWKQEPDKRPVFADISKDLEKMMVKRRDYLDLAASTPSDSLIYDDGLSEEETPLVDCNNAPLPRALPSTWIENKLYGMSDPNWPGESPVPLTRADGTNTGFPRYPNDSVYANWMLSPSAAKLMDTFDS
# UniProt P07949, whole entry, looked up: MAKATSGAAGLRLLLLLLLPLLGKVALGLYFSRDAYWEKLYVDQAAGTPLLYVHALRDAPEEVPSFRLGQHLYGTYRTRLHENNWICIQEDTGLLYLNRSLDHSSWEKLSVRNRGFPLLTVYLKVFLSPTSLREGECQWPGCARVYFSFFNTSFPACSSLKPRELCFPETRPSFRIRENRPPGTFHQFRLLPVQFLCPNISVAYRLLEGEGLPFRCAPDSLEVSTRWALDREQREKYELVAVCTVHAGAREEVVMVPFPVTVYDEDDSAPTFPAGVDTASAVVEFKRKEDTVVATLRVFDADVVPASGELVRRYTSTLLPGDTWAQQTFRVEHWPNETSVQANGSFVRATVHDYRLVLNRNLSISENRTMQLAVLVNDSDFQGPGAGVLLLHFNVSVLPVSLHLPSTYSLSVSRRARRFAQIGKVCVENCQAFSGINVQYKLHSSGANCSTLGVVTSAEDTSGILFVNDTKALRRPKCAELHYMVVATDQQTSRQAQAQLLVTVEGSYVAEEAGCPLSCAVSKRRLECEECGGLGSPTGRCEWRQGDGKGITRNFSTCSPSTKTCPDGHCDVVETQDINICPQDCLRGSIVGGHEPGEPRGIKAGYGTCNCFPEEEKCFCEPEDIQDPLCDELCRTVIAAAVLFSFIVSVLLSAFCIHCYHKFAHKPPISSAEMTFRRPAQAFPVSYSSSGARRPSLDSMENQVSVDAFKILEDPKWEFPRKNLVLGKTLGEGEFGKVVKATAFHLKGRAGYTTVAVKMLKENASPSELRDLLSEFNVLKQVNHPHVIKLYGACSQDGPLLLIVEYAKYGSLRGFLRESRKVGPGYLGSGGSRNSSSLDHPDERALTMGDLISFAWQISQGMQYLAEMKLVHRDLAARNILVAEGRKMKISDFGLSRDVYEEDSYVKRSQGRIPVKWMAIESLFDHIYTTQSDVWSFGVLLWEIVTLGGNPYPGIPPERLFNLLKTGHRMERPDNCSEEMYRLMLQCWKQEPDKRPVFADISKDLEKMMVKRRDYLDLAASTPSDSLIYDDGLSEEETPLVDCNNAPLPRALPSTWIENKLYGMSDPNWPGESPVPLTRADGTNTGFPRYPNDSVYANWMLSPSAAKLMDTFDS
# UniProt O96017, whole entry: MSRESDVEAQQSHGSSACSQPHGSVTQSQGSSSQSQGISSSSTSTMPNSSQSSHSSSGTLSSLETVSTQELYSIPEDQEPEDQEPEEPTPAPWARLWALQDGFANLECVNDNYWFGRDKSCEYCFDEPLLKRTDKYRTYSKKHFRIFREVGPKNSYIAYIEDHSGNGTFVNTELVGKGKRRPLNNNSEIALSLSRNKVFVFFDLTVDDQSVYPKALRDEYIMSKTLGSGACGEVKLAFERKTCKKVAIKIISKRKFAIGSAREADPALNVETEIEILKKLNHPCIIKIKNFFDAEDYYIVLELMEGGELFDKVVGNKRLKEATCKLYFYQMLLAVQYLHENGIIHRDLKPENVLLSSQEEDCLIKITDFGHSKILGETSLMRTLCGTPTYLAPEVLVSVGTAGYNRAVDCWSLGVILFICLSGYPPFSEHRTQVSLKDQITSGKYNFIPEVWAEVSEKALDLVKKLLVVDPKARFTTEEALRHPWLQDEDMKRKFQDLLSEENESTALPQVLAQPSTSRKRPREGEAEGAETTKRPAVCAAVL
# UniProt Q92630: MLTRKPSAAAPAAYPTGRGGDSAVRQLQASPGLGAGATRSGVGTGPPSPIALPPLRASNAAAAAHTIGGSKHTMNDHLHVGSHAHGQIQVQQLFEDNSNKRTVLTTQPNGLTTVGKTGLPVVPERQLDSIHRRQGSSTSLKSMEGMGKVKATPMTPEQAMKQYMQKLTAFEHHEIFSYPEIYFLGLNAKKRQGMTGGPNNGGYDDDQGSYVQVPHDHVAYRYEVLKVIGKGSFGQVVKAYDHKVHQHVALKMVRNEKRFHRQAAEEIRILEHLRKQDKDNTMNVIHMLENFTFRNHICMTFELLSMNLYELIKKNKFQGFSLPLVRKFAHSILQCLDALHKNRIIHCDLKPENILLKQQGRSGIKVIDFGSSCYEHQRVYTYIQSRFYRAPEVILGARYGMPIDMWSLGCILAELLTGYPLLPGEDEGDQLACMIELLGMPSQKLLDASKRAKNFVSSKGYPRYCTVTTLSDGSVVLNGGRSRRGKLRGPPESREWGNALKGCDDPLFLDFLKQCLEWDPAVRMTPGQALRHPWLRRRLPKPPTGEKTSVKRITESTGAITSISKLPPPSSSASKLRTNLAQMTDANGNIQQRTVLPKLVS
# UniProt P53671: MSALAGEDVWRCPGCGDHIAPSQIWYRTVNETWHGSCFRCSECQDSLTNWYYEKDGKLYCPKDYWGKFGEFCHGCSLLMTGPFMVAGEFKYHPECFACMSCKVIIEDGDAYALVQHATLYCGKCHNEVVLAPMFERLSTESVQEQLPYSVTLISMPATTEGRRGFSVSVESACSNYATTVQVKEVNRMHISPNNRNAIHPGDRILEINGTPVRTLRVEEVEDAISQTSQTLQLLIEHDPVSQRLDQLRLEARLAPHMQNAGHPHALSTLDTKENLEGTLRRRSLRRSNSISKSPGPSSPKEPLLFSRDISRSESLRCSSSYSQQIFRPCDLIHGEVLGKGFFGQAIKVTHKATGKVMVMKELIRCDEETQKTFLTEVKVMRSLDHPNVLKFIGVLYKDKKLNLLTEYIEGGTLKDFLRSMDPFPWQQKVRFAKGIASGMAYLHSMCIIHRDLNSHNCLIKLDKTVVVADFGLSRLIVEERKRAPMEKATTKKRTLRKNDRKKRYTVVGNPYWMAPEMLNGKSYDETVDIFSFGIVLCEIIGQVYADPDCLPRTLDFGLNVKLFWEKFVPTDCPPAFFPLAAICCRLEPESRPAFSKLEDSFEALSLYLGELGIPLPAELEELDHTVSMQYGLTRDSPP
# UniProt P06239: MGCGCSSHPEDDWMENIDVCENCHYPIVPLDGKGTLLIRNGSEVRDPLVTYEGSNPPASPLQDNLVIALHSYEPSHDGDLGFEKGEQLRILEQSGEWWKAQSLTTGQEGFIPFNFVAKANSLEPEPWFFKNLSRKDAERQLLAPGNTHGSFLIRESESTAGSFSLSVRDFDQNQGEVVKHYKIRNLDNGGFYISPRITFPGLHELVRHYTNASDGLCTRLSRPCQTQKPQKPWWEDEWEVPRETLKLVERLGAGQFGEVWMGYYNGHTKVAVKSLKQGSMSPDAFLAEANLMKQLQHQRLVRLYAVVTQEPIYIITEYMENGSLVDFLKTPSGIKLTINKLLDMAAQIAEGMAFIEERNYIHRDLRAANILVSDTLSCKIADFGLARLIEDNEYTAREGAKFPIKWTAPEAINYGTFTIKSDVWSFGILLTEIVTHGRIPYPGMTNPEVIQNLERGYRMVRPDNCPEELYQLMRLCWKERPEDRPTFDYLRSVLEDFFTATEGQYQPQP
# UniProt Q15208: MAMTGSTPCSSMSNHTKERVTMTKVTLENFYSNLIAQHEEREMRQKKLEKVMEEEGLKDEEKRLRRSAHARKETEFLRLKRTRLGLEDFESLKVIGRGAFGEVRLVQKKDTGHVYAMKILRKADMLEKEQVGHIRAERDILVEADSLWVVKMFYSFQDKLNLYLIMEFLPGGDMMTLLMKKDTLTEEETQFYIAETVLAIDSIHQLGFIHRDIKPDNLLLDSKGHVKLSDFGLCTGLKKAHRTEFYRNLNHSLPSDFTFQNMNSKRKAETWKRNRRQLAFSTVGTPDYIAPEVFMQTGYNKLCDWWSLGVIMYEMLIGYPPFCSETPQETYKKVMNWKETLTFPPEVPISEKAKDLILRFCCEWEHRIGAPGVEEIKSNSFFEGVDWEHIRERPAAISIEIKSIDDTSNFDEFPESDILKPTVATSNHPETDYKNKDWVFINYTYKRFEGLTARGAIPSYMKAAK
# UniProt Q8IWU2: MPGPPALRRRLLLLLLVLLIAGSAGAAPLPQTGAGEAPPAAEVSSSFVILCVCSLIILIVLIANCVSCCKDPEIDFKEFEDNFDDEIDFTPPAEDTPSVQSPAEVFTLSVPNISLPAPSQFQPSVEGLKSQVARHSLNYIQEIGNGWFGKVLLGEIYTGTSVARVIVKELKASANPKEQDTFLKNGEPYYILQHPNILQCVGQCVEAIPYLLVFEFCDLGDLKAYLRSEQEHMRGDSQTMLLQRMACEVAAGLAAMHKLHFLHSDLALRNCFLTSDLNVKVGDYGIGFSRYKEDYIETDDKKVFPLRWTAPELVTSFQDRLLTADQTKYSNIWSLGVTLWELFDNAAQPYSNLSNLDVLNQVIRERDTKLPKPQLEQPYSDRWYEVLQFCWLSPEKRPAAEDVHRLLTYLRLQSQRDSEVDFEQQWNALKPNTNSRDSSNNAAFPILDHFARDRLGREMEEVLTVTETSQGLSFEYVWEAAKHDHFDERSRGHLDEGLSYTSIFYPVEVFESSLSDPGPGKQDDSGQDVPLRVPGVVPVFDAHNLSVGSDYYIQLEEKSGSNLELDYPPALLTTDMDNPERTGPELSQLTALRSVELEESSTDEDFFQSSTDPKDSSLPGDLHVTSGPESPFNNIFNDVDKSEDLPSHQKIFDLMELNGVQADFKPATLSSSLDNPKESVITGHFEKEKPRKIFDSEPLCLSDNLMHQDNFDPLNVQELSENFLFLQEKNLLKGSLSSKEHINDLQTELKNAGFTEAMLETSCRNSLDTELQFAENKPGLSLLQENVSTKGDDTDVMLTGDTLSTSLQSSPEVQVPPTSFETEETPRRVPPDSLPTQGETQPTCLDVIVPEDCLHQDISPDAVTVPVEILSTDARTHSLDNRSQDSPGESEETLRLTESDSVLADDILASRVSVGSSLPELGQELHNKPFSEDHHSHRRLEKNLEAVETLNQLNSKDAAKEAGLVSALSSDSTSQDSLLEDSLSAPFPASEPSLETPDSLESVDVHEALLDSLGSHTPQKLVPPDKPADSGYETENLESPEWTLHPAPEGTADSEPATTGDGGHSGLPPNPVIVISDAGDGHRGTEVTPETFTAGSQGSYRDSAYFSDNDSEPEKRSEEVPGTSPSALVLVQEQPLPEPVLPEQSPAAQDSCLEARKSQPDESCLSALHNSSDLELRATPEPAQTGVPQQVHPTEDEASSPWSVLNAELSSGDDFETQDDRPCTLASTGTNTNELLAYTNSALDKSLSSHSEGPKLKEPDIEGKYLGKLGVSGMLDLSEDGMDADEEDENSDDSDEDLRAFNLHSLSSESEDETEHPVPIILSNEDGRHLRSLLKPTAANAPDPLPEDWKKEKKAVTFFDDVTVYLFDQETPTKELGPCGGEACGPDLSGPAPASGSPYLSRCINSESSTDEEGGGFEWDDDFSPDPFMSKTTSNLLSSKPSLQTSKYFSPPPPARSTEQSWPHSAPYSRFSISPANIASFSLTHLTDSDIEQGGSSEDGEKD
# Key:
# Assay in all cases: number of time points (of 5) at which kinase-Nluc abundance scored as decreased, DMSO-normalised (count); higher = more persistent destabilization
# [1] = compound: C#Cc1cccc(Nc2ncnc3cc(OCCOC)c(OCCO)cc23)c1 [Desmethyl Erlotinib (hydrochloride)]; details: 10 µM; K562; 2-18 h
# [2] = compound: C#Cc1cccc(Nc2ncnc3cc(OCCOC)c(OCCO)cc23)c1 [Desmethyl Erlotinib]; details: 10 µM; K562; 2-18 h
# [3] = compound: C#Cc1cccc(Nc2ncnc3cc(OCCOC)c(OCCOC)cc23)c1 [Erlotinib (Hydrochloride)]; details: 10 µM; K562; 2-18 h
# [4] = compound: C#Cc1cccc(Nc2ncnc3cc(OCCOC)c(OCCOC)cc23)c1 [Erlotinib]; details: 10 µM; K562; 2-18 h
# [5] = compound: C#Cc1cccc(Nc2ncnc3cc4c(cc23)OCCOCCOCCO4)c1 [Icotinib (Hydrochloride)]; details: 10 µM; K562; 2-18 h
# [6] = compound: C#Cc1cccc(Nc2ncnc3cc4c(cc23)OCCOCCOCCO4)c1 [Icotinib]; details: 10 µM; K562; 2-18 h
# [7] = compound: C/C=C1\C(=O)C[C@H]2[C@@H]3CCC4=CC(=O)CC[C@]4(C)[C@H]3CC[C@]12C [(Z)-Guggulsterone]; details: 10 µM; K562; 2-18 h
# [8] = compound: C/C=C1\C(=O)C[C@H]2[C@@H]3CCC4=CC(=O)CC[C@]4(C)[C@H]3CC[C@]12C [Guggulsterone]; details: 10 µM; K562; 2-18 h
# [9] = compound: C=CC(=O)N1CCN(c2ncnc3c(F)c(-c4c(O)cccc4F)c(Cl)cc23)CC1; details: K562, 2-18 h
# [10] = compound: C=CC(=O)Nc1cc(Nc2ncc(C(=O)OC(C)C)c(-c3cn(C)c4ccccc34)n2)c(OC)cc1N(C)CCN(C)C [Mobocertinib (succinate)]; details: 10 µM; K562; 2-18 h
# [11] = compound: C=CC(=O)Nc1cc(Nc2ncc(C(=O)OC(C)C)c(-c3cn(C)c4ccccc34)n2)c(OC)cc1N(C)CCN(C)C [Mobocertinib]; details: 10 µM; K562; 2-18 h
# [12] = compound: C=CC(=O)Nc1cc(Nc2nccc(-c3cn(C)c4ccccc34)n2)c(OC)cc1N(C)CCN(C)C [Osimertinib (dimesylate)]; details: 2.5 µM; K562; 2-18 h
# [13] = compound: C=CC(=O)Nc1cc(Nc2nccc(-c3cn(C)c4ccccc34)n2)c(OC)cc1N(C)CCN(C)C [Osimertinib mesylate]; details: 2.5 µM; K562; 2-18 h
# [14] = compound: C=CC(=O)Nc1cc(Nc2nccc(-c3cn(C)c4ccccc34)n2)c(OC)cc1N(C)CCN(C)C [Osimertinib]; details: 2.5 µM; K562; 2-18 h
# [15] = compound: C=CC(=O)Nc1cc(Nc2nccc(-c3cn(C4CC4)c4ccccc34)n2)c(OC)cc1N(C)CCN(C)C [Almonertinib (hydrochloride)]; details: 2.5 µM; K562; 2-18 h
# [16] = compound: C=CC(=O)Nc1cc(Nc2nccc(-c3cn(C4CC4)c4ccccc34)n2)c(OC)cc1N(C)CCN(C)C [Almonertinib]; details: 2.5 µM; K562; 2-18 h
# [17] = compound: C=CC(=O)Nc1cc2c(Nc3ccc(F)c(Cl)c3)ncnc2cc1C#CC(C)(C)N1CCN(C)CC1 [AV-412 (free base)]; details: 2.5 µM; K562; 2-18 h
# [18] = compound: C=CC(=O)Nc1cc2c(Nc3ccc(F)c(Cl)c3)ncnc2cc1C#CC(C)(C)N1CCN(C)CC1; details: 2.5 µM; K562; 2-18 h
# [19] = compound: CC(=O)N[C@H](Cc1ccc(O)cc1)C(=O)N[C@H](CCCN=C(N)N)C(=O)N[C@H](Cc1ccccc1)C(N)=O; details: 10 µM; K562; 2-18 h
# [20] = compound: CC(=O)Nc1cccc(-n2c(=O)n(C3CC3)c(=O)c3c(Nc4ccc(I)cc4F)n(C)c(=O)c(C)c32)c1 [Trametinib (DMSO solvate)]; details: 10 µM; K562; 2-18 h
Target,number of time points [1],number of time points [2],number of time points [3],number of time points [4],number of time points [5],number of time points [6],number of time points [7],number of time points [8],number of time points ([9]; 2.5 µM),number of time points ([9]; 10 µM),number of time points [10],number of time points [11],number of time points [12],number of time points [13],number of time points [14],number of time points [15],number of time points [16],number of time points [17],number of time points [18],number of time points [19],number of time points [20]
AURKA (UniProt O14965),0,0,0,0,0,3,0,0,0,0,0,0,0,0,0,0,0,4,4,0,1
RAF1_S257L (clone: RAF1_mut) (UniProt P04049),1,1,0,0,0,2,0,0,0,0,0,0,0,0,3,0,0,0,0,0,0
SPHK1 (UniProt Q9NYA1),0,0,0,0,0,0,0,0,0,0,0,0,0,0,0,0,0,0,0,0,0
RET_M918T (clone: RET_mut) (UniProt P07949),0,0,0,0,0,0,0,0,0,0,0,0,0,0,0,0,0,0,0,0,0
FGR (UniProt P09769),0,0,0,0,0,0,0,0,0,0,0,0,0,0,0,0,0,0,0,0,0
RET (UniProt P07949),0,0,0,0,0,0,0,0,0,0,0,0,0,0,0,0,0,0,0,0,0
FGFR3 (UniProt P22607),0,0,0,0,0,0,,,0,0,0,0,0,0,0,0,0,0,0,0,0
ZAP70 (UniProt P43403),0,0,0,0,0,0,0,0,0,0,0,0,0,0,0,0,0,0,0,0,0
AURKB (UniProt Q96GD4),0,0,0,0,0,0,0,0,0,0,0,0,0,0,0,0,0,3,3,0,1
BRAF_V600E,0,0,0,0,0,1,0,0,0,0,0,0,1,1,2,0,0,4,1,0,1
MAPK4 (UniProt P31152),0,0,0,0,0,0,0,0,0,0,0,0,0,0,0,0,0,0,0,0,0
CHEK2 (UniProt O96017),0,0,0,0,0,0,0,0,0,0,0,0,0,0,0,0,0,0,0,0,0
DYRK2 (UniProt Q92630),0,0,3,0,0,2,0,0,0,0,0,0,0,0,0,0,0,3,4,0,0
HER2 (UniProt P04626),5,0,0,0,0,0,0,0,0,0,3,4,4,4,4,4,4,5,5,0,2
CDK5 (UniProt Q00535),0,0,0,0,0,0,0,0,0,0,0,0,0,0,0,0,0,0,0,0,0
LIMK2 (UniProt P53671),0,0,0,0,0,0,0,0,0,0,0,0,0,0,0,0,0,3,5,0,0
CDK6 (UniProt Q00534),0,0,0,0,0,0,0,0,0,0,0,0,0,0,0,0,0,0,0,0,0
EGFR_G719S (UniProt P00533),2,0,,,0,0,0,0,0,0,0,0,,,,0,0,3,0,0,2
EGFR_L718V (UniProt P00533),0,0,,,0,0,0,0,0,0,0,0,,,,0,0,0,0,0,0

Target,number of time points [1],number of time points [2],number of time points [3],number of time points [4],number of time points [5],number of time points [6],number of time points [7],number of time points [8],number of time points ([9]; 2.5 µM),number of time points ([9]; 10 µM),number of time points [10],number of time points [11],number of time points [12],number of time points [13],number of time points [14],number of time points [15],number of time points [16],number of time points [17],number of time points [18],number of time points [19],number of time points [20]
RAF1 (UniProt P04049),0,0,0,0,0,0,0,0,0,0,0,0,0,0,0,0,0,0,0,0,2
MAP2K1 (UniProt Q02750),0,0,0,0,0,0,0,0,0,0,0,0,0,0,0,0,0,0,0,0,0
LCK (UniProt P06239),0,0,,,0,0,0,0,0,0,0,0,0,0,0,0,0,0,0,0,0
FGFR1 (UniProt P11362),0,0,0,0,0,0,0,0,0,0,0,0,0,0,0,0,0,0,0,0,0
NTRK2 (UniProt Q16620),0,0,0,0,,0,0,0,1,0,0,0,0,0,0,0,0,0,0,0,0
CSK (UniProt P41240),0,0,0,0,0,0,0,0,0,0,0,0,0,0,0,0,0,0,0,0,0
STK38 (UniProt Q15208),0,0,0,0,0,0,0,0,0,0,0,0,0,0,0,0,0,0,0,0,0
PDGFRB (UniProt P09619),0,0,0,0,0,0,0,0,0,0,0,0,0,0,0,0,0,0,0,0,2
ULK3 (UniProt Q6PHR2),0,0,0,0,0,0,0,0,0,0,0,0,2,1,0,0,0,0,2,0,0
EGFR_G719S_T790M (UniProt P00533),1,0,,,0,0,0,0,0,0,0,0,,,,0,0,0,0,0,0
AURKC (UniProt Q9UQB9),0,0,0,0,0,0,0,0,0,0,0,0,0,0,0,0,0,0,0,0,0
EPHA2 (UniProt P29317),0,0,0,0,0,0,0,0,0,0,0,0,0,0,0,0,0,0,0,0,0
PLK1 (UniProt P53350),0,0,0,0,0,0,,,0,0,0,0,0,0,0,0,0,0,0,0,0
LMTK2 (UniProt Q8IWU2),0,0,0,0,0,2,0,0,0,0,0,0,0,0,0,0,0,1,0,0,0
EGFR (UniProt P00533),3,0,,,0,0,0,0,0,0,0,0,,,,0,0,0,0,0,0
EGFR_L861Q (UniProt P00533),0,0,,,0,0,0,0,0,0,0,0,,,,0,0,0,0,0,0
EGFR_T790M (UniProt P00533),0,0,,,0,0,0,0,0,0,0,0,,,,0,0,0,0,0,0
EGFR_L858R (UniProt P00533),0,0,,,0,0,0,0,0,0,0,0,,,,0,0,0,0,0,0

# As entered above:
# Entry of FGFR3 (UniProt P22607) under number of time points [1]: 0
# Entry of FGFR1 (UniProt P11362) under number of time points [1]: 0

# From the supplement of paper PMC12823440, “Inhibitors supercharge kinase turnover through native proteolytic circuits” (Nature, 2025)
